The record followed here is patent US20140314799A1.

Chains of the proteins cited; added tags and fusions are not shown. Lines headed by an entry give the natural chain unless they say otherwise; changes in a name come on top.
UniProt O60603: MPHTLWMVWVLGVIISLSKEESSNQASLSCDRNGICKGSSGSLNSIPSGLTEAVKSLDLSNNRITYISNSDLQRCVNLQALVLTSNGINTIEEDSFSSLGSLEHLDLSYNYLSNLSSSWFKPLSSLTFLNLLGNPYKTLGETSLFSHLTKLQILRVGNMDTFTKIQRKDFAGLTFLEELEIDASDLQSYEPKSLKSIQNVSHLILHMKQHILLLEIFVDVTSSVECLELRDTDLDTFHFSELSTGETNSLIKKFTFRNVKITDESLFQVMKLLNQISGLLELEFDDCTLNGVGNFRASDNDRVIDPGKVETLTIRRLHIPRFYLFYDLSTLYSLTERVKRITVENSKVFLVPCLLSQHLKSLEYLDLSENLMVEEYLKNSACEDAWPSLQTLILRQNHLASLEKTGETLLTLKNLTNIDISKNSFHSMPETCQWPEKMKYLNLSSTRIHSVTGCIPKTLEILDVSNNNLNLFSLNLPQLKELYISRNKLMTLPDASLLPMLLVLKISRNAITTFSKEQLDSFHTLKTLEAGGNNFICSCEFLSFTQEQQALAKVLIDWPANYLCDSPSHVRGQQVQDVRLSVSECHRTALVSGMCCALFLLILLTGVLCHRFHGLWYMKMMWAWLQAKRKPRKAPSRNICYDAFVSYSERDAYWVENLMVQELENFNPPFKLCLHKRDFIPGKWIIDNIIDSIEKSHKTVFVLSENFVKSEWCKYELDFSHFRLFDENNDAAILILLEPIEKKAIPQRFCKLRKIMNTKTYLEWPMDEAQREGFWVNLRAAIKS
UniProt P08253: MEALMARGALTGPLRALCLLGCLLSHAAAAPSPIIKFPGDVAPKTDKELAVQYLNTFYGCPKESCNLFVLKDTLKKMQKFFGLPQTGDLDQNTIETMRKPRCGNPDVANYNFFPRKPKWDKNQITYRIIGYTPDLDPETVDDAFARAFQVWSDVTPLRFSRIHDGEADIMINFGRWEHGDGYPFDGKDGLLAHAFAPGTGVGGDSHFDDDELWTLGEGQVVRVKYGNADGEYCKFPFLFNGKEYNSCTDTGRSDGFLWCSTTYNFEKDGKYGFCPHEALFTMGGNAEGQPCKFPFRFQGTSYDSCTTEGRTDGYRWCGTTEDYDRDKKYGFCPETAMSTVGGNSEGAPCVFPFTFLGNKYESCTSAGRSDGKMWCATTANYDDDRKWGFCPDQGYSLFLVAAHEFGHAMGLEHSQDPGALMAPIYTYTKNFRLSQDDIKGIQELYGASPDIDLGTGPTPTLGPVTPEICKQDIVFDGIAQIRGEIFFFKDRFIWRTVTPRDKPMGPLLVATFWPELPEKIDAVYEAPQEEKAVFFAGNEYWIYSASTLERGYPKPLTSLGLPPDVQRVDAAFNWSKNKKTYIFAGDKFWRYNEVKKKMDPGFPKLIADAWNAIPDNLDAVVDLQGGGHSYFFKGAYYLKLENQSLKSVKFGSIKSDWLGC

No constants are given. Whether binding was seen depends on the method and setting. Binding seen in cells or lysates may run through a third protein. Some results given as binding are weak or reduced against the parent protein; the word gives no strength.

The target in experiment [1] is human toll-like receptor-2 (TLR-2) (human) (UniProt O60603). Nature of the experiment: co-immunoprecipitation (protein G-agarose) from moDCs or TLR2-transfected HEK cells incubated 20 min with 5 µg/ml MMP-2, Western blot. (In western blotting, separated proteins are transferred to a membrane and probed.)
Experiment [2] has the same target. Nature of the experiment: co-immunoprecipitation from lysates of moDCs or TLR2-transfected HEK cells treated with 5 µg/ml MMP-2; IP of TLR2 or of MMP-2, Western blot.

With “Purified human matrix metalloproteinase-2 (MMP-2) (from UniProt P08253 110-660) (enzyme)”, the binding entry in experiment [1] and in experiment [2] was “binds” in each case.
